Values of other authors, collected in patent EP0836475B1, “CONTROLLED RELEASE FORMULATIONS FOR POORLY SOLUBLE DRUGS” (ELAN CORPORATION, Plc, priority 1995, dated 1997).
At least one structure is not confirmed: it was looked up by name or label, or the drawing left a doubt.

**Q.** With `COC(=O)C1=C(C)NC(C)=C(C(=O)OC)C1c1ccccc1[N+](=O)[O-]` [nifedipine] as the molecule, how does the “in vitro release of nifedipine” value (at 6 hours, HPMC having a viscosity of 15 cps as the cellulose derivative) read?
**A.** ~ 25%

**Q.** And the in vitro release (at six hours, HPMC with a viscosity of 6 cps or a 50:50 mixture of HPMC with viscosities of 6 cps and 15 cps)?
**A.** greater than 80%
